Target: Voltage-gated inwardly rectifying potassium channel KCNH2 (Homo sapiens, UniProt Q12809)

Protein sequences, listed by entry. Tags and fused reporters are not part of them. Lines headed by an entry give the natural chain unless they say otherwise; changes in a name come on top.
UniProt Q12809: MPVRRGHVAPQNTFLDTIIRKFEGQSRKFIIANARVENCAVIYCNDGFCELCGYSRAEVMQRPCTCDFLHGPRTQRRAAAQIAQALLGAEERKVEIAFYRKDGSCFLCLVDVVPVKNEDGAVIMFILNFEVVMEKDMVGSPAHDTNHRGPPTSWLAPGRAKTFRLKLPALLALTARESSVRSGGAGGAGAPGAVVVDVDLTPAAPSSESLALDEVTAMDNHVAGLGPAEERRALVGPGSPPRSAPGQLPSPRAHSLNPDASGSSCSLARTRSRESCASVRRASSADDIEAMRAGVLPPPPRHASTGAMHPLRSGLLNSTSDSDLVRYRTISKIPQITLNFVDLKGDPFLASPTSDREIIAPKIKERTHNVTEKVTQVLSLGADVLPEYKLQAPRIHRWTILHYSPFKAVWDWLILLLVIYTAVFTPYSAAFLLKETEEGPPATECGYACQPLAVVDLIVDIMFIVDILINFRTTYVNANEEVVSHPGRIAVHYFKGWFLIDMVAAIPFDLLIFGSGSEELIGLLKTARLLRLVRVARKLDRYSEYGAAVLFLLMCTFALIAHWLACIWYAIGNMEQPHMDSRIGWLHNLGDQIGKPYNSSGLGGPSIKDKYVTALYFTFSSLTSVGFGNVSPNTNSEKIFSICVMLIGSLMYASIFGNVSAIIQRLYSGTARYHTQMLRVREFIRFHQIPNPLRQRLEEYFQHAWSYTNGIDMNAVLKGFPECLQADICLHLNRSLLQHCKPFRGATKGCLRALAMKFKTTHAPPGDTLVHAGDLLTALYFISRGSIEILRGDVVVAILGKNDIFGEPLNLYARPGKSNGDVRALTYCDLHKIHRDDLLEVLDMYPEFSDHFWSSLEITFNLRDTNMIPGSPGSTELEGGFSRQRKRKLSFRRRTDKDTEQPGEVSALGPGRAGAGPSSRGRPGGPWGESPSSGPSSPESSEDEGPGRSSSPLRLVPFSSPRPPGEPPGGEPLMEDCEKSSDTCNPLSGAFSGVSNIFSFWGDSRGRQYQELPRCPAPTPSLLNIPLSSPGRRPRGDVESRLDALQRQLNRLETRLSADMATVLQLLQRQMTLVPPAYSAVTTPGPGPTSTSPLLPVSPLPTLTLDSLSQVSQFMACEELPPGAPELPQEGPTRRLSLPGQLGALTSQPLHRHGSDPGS

With `CC(=O)NC[C@@H]1OC(=O)N2c3cc(F)c(C4=CCN(C(=O)CO)CC4)cc3OC[C@@H]12` as the compound, how does the IC50 read?
Its IC50 is > 30 µM.

Source: ChEMBL document CHEMBL3997852, “Discovery of Fluorine-Containing Benzoxazinyl-oxazolidinones for the Treatment of Multidrug Resistant Tuberculosis” (ACS Med Chem Lett, 2017)
